Measured values taken from paper PMC2730530.
These are yes or no findings as the source states them, for the method shown. Binding seen in cells or lysates may run through a third protein. Binding calls can cover weak binding; strength is not graded here.

How the values were obtained:
[1] = biological target: POB1 (endogenous, rat) (rat (endogenous in rat brain)); assay: co-IP; lysates of cultured neurons (>DIV 18), with or without NMDA treatment; immunoprecipitated with PSD-95 or POB1 antibodies and immunoblotted
[2] = biological target: POB1 (endogenous, rat) (rat (endogenous in rat brain)); assay: co-IP; S2 fraction of adult rat brain immunoprecipitated and immunoblotted

binding [1]: binds
binding [2]: binds
B1: RalBP1 (endogenous, rat) (protein, UniProt Q62796 1-647)
chain: MTECFLPPTSSPSEHRRAEHGSGLTRTPSSEEISPTKFPELYRTGEPSPPHDILHEPPDIVSDDEKDHGKKKGKFKKKEKRTEGYVAFQEDSSGDEAESPSKMKRSKGIHVFKKPSFSKKKEKDFKIKEKPKEEKHKEEKHKEEKHKEKKCKDFTAADVVKQWKEKKKKKKPTQEPEVPQTDAPSLRPIFGAPFADAVERTMMYDGIRLPAVFRECVDYMEKHGMKCEGIYRVSGIKSKVDELKAAYDREESPNLEEYEPNTVASLLKQYLRDLPENLLTKELMPRFEEACGRTTEVEKVQEFQRLLRELPEYNHLLLSWLIVHMDHVIAKELETKMNIQNISIVLSPTVQISNRVLYVLFTHVQELFGTVLLKQVTRPLRWSNMATMPTLPETQAGIKEEIRRQEFLLNCLHRDLQGGIKDFSKEERLWEVQRILTALKRKLREAKRQECETKIAQEIASLSKEDVSKEETNENEEVINILLAQENEILTEQEELLAMEQFLRRQIASEKEEIDRLRAEIAEIQSRQHGRSETEEYSSDSESESEDEEELQIILEDLQRQNEELEIKNNHLNQAVHEEREAIVELRVQLRLLQMLRAKSEQQLQEEEEPERRGGTGPLPCEGVLEVRAAKEQAKPSPSKDRKETPI
